This experiment deals with T1, truncated Drosophila P element transposase D (residues 1-140) (Drosophila) (UniProt Q7M3K2).
T1 sequence: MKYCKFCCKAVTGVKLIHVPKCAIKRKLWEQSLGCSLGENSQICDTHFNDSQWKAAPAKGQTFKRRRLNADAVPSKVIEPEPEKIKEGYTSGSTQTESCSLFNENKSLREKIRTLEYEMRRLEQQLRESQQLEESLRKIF
In words: co-IP.

These are yes or no findings as the source states them, for the method shown. Binding seen in cells or lysates may run through a third protein. A result given as binding can be weak or reduced; the word gives no strength.

With “DmTNP deletion mutant D_Del-H (residues 1-99) (Drosophila) (domain or fragment)”, the binding result was “binds”.

These data come from paper doi:10.1101/2020.10.06.328815.
